Experiment: general procedure: solution-phase peptide synthesis; HOBt/DIPEA/pyridine (PNP carbonate); DIC/HOBt
Conditions: conjugation step

Substance: Triacryloylhexahydro triazine-mercaptoacetic acid-valine-citrulline-p-aminobenzyloxycarbonyl Monomethyl auristatin E
- conjugation yield (run 1): 52%
- conjugation yield (run 2): 65.27%

Source: US20200138968 (published 2020)
